Experimental data: patent publication US9649295B2, “Chemical inhibitors of soluble adenylyl cyclase (sAC)” (Cornell Research Foundation, Inc., priority 2004, dated 2017)
For at least one compound, name, drawing or mass did not settle the structure.

Protein sequences, listed by entry. Tags and fused reporters are not part of them. Lines headed by an entry give the natural chain unless they say otherwise; changes in a name come on top.
UniProt Q96PN6: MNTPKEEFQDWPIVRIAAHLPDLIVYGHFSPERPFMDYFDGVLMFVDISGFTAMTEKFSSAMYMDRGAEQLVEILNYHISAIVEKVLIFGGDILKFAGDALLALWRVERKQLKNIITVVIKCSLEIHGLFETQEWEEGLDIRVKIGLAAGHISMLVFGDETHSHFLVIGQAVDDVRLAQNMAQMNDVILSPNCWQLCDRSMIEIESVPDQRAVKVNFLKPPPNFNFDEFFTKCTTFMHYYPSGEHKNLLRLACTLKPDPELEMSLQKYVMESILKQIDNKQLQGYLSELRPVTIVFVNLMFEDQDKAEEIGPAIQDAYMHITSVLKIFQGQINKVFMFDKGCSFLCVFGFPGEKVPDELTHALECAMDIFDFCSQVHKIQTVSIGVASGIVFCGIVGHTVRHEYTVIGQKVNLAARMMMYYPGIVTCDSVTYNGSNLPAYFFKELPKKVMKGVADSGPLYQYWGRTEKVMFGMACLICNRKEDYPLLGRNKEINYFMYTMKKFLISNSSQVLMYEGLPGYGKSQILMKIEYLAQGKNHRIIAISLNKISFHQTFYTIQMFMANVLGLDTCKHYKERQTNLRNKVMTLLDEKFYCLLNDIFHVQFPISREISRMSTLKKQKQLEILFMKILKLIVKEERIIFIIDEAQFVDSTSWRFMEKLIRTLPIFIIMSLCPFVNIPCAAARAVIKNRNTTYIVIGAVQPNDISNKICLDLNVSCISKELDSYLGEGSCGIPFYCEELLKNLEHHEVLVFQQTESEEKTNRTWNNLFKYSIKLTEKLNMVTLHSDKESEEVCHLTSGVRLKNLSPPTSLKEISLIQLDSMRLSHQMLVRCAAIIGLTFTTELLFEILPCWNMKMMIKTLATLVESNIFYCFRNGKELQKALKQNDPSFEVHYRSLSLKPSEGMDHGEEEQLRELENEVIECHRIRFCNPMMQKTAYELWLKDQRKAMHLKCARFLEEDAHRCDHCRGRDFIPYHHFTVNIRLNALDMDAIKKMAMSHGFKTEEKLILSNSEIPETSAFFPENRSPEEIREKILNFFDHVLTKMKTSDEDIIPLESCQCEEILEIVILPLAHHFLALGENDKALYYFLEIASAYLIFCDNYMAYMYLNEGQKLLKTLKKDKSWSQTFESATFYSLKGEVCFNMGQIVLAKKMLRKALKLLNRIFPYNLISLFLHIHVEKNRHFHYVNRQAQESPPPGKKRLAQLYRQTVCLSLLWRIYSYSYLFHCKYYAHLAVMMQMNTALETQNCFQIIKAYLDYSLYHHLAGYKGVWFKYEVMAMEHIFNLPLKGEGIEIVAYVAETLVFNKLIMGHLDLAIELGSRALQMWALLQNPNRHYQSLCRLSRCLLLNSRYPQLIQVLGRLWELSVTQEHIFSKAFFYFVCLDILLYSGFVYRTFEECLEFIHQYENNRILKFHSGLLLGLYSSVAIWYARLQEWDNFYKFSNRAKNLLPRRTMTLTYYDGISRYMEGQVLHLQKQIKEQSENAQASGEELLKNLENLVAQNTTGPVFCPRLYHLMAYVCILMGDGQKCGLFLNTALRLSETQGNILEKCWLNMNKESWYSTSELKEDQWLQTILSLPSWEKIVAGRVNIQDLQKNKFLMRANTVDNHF

Biological target: T1, adenylyl cyclase activity (sAC) in isolated nuclei (Homo sapiens, UniProt Q96PN6)
T1 construct: endogenous in cells; host or cells: HeLa (suspension), nuclei-enriched P2 fraction
Experiment: adenylyl cyclase assay (cAMP) in isolated nuclei (P2)
Format: biochemical
Conditions: forskolin

In the case of `C=C[C@@]1(C)CC(=O)[C@]2(O)[C@@]3(C)[C@@H](O)CCC(C)(C)[C@@H]3[C@H](O)[C@H](OC(C)=O)[C@@]2(C)O1` [forskolin], the “cAMP production in isolated nuclei” value is reported as “no significant increase in cAMP”.
